No constants are given. Whether binding was seen depends on the method and setting. In cells and extracts the contact can be indirect. A yes stands for co-enrichment or nearness to the bait. Other partners may have been found. Where a sequence is shown, tags or fusion partners need not be part of it.
Target: T1, Flag-HA-tagged CARM1 (pCMV10-Flag-CARM1-HA) (UniProt Q86X55)
T1 sequence: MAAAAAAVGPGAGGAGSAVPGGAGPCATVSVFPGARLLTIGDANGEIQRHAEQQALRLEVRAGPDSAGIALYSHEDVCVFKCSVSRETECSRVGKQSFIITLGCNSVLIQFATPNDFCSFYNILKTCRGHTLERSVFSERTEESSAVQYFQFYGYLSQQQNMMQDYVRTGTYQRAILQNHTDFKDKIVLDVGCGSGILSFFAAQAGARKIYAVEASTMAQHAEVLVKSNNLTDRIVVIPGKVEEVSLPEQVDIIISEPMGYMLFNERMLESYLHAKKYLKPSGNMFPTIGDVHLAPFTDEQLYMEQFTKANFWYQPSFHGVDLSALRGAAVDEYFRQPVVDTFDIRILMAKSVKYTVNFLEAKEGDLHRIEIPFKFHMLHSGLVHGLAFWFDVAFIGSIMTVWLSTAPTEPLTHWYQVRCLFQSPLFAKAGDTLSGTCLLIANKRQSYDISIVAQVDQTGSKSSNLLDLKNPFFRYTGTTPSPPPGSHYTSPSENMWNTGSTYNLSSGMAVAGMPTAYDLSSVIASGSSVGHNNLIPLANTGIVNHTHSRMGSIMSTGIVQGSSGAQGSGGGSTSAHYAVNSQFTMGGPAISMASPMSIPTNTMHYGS
Assay: affinity purification with mass spectrometry; nuclear extracts of HEK293 cells stably expressing Flag-HA-tagged CARM1; Anti-FLAG M2 Affinity gel; DNase I added; washes with 150 mM NaCl then 420 mM NaCl, 1% Triton X-100; eluted with 3x Flag peptides; LC-MS/MS

The chains behind the UniProt entries cited, without tags or fusion partners.
UniProt Q8WXI9: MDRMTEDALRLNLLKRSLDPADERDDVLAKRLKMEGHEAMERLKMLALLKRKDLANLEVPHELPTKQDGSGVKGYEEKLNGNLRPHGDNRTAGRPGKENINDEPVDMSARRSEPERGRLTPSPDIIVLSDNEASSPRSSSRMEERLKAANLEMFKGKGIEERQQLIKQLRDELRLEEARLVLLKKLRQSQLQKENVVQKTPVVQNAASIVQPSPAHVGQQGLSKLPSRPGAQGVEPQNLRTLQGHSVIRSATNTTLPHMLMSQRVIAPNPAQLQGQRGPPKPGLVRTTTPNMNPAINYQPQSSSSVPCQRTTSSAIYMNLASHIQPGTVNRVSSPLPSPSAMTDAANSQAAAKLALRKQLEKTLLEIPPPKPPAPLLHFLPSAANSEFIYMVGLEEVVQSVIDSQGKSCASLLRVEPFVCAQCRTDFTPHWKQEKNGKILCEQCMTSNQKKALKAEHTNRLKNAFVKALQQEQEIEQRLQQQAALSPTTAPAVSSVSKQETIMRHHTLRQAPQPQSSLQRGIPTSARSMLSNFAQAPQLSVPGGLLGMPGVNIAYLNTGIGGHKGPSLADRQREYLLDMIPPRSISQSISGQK

binding: binds
Substance: GATAD2B (endogenous) (from UniProt Q8WXI9 1-593)

From article PMC11229315
